Data as given in patent US20250164508A1, “G-PROTEIN COUPLED RECEPTOR ASSAY” (The Regents of the University of Michigan, priority 2022, published 2025).
Results are given in words; binding and its absence hold for the method and conditions named. Some results given as binding are weak or reduced against the parent protein; the word gives no strength.

The chains behind the UniProt entries cited, without tags or fusion partners.
UniProt P35372: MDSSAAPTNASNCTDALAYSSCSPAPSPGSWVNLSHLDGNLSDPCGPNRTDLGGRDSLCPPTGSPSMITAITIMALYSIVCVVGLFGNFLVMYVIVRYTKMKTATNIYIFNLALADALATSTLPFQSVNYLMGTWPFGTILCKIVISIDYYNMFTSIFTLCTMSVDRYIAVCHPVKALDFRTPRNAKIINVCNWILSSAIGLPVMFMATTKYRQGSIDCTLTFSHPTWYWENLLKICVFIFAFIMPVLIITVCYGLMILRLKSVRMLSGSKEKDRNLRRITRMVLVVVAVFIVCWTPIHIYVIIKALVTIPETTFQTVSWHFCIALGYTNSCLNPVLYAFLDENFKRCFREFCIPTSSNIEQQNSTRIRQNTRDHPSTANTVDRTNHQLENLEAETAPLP

Target: MOR-LgBit fusion protein (µ-opioid receptor fused to LgBiT) (UniProt P35372)
Test: in-solution split NANOLUC complementation, DTT added

Binder: VTGYRLFEEILGSKKKFDCVTDCIIKNNLKDSGLF [Gi peptidomimetic …]
- binding: binds
